Drawing on paper PMC6966961, this text covers binding for seven molecules.

Results are given in words; binding and its absence hold for the method and conditions named. Some binding calls cover weakened binding; strength is not graded here.

Common to all, as to experiment: two-hybrid; split ubiquitin yeast two hybrid (SUB Y2H) in S. cerevisiae NMY51; AtPIP1;1 in pMetYCgate (CubPLV), other AtPIPs in pXNgate (NubG); positive transformants 10-fold serially diluted, spotted on SD-WLAH plates, 30°C, 2 days; the same transformants also grown in liquid SD-WLAH (OD600 after 2 days)
Test [1] concerns the target T1, AtPIP1;1 (Arabidopsis thaliana ecotype Col-0) (UniProt P61837).
T1 sequence: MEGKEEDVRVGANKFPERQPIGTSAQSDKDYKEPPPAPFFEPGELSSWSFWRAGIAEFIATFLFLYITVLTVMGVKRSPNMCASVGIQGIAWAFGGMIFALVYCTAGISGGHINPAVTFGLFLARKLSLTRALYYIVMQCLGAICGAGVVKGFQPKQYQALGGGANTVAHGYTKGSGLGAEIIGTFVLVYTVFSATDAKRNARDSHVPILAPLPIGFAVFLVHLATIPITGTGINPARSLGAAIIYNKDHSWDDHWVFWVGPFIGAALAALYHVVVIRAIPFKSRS

Test [2] deals with T2, 1;1Q88L (AtPIP1;1 mutant, with glutamine at site of 88 mutated into leucine) (Arabidopsis thaliana ecotype Col-0) (UniProt P61837).
T2 sequence: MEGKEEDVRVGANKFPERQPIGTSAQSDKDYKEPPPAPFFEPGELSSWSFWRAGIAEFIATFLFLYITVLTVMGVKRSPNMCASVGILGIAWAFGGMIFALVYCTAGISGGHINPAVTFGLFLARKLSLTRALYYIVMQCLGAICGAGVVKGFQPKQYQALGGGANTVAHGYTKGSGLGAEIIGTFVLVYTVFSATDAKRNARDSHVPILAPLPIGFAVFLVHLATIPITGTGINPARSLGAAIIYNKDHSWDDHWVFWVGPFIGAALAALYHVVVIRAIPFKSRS

For test [3], the target named is AtPIP2;4 (Arabidopsis thaliana ecotype Col-0) (UniProt Q9FF53).
In test [4] the target is 2;4L81Q (AtPIP2;4 mutant, with leucine at site of 81 mutated into glutamine) (Arabidopsis thaliana ecotype Col-0) (UniProt Q9FF53).
In test [5] the target is 2;4V93A (AtPIP2;4 mutant, with valine at site of 100 mutated into alanine) (Arabidopsis thaliana ecotype Col-0) (UniProt Q9FF53).
The target in test [6] is 1;1A100V (AtPIP1;1 mutant, with alanine at site of 100 mutated into valine) (Arabidopsis thaliana ecotype Col-0) (UniProt P61837).

B1: 2;4ΔTM2/1;1TM2 (protein, UniProt Q9FF53 1-291)
chain: MAKDLDVNESGPPAARDYKDPPPAPFFDMEELRKWPLYRAVIAEFVATLLFLYVSILTVIGYKAQTDATAGGVDCGGVGIQGIAWAFGGMIFALVYCTAGISGGHINPAVTVGLFLARKVSLVRTVLYIVAQCLGAICGCGFVKAFQSSYYTRYGGGANELADGYNKGTGLGAEIIGTFVLVYTVFSATDPKRNARDSHVPVLAPLPIGFAVFMVHLATIPITGTGINPARSFGAAVIYNNEKAWDDQWIFWVGPMIGAAAAAFYHQFILRAAAIKALGSFGSFGSFRSFA
On to B1, for which the binding result in test [1] and in test [2] was “binds” throughout.

B2: AtPIP2;4 (protein, UniProt Q9FF53 1-291)
chain: MAKDLDVNESGPPAARDYKDPPPAPFFDMEELRKWPLYRAVIAEFVATLLFLYVSILTVIGYKAQTDATAGGVDCGGVGILGIAWAFGGMIFVLVYCTAGISGGHINPAVTVGLFLARKVSLVRTVLYIVAQCLGAICGCGFVKAFQSSYYTRYGGGANELADGYNKGTGLGAEIIGTFVLVYTVFSATDPKRNARDSHVPVLAPLPIGFAVFMVHLATIPITGTGINPARSFGAAVIYNNEKAWDDQWIFWVGPMIGAAAAAFYHQFILRAAAIKALGSFGSFGSFRSFA
With B2, the binding result in test [3] and in test [1] was “binds” throughout.

B3: 2;4L81Q (AtPIP2;4 mutant, with leucine at site of 81 mutated into glutamine) (protein, UniProt Q9FF53 1-291)
chain: MAKDLDVNESGPPAARDYKDPPPAPFFDMEELRKWPLYRAVIAEFVATLLFLYVSILTVIGYKAQTDATAGGVDCGGVGIQGIAWAFGGMIFVLVYCTAGISGGHINPAVTVGLFLARKVSLVRTVLYIVAQCLGAICGCGFVKAFQSSYYTRYGGGANELADGYNKGTGLGAEIIGTFVLVYTVFSATDPKRNARDSHVPVLAPLPIGFAVFMVHLATIPITGTGINPARSFGAAVIYNNEKAWDDQWIFWVGPMIGAAAAAFYHQFILRAAAIKALGSFGSFGSFRSFA
Take B3: the binding entry in test [4] was “binds”.

B4: 2;4V93A (AtPIP2;4 mutant, with valine at site of 100 mutated into alanine) (protein, UniProt Q9FF53 1-291)
chain: MAKDLDVNESGPPAARDYKDPPPAPFFDMEELRKWPLYRAVIAEFVATLLFLYVSILTVIGYKAQTDATAGGVDCGGVGILGIAWAFGGMIFALVYCTAGISGGHINPAVTVGLFLARKVSLVRTVLYIVAQCLGAICGCGFVKAFQSSYYTRYGGGANELADGYNKGTGLGAEIIGTFVLVYTVFSATDPKRNARDSHVPVLAPLPIGFAVFMVHLATIPITGTGINPARSFGAAVIYNNEKAWDDQWIFWVGPMIGAAAAAFYHQFILRAAAIKALGSFGSFGSFRSFA
In the case of B4, the binding result in test [5] was “binds”.

B5: AtPIP1;1 (protein, UniProt P61837 1-286)
chain: MEGKEEDVRVGANKFPERQPIGTSAQSDKDYKEPPPAPFFEPGELSSWSFWRAGIAEFIATFLFLYITVLTVMGVKRSPNMCASVGIQGIAWAFGGMIFALVYCTAGISGGHINPAVTFGLFLARKLSLTRALYYIVMQCLGAICGAGVVKGFQPKQYQALGGGANTVAHGYTKGSGLGAEIIGTFVLVYTVFSATDAKRNARDSHVPILAPLPIGFAVFLVHLATIPITGTGINPARSLGAAIIYNKDHSWDDHWVFWVGPFIGAALAALYHVVVIRAIPFKSRS
As to B5, the binding entry in test [1] is “binds weakly”.

B6: 1;1A100V (AtPIP1;1 mutant, with alanine at site of 100 mutated into valine) (protein, UniProt P61837 1-286)
chain: MEGKEEDVRVGANKFPERQPIGTSAQSDKDYKEPPPAPFFEPGELSSWSFWRAGIAEFIATFLFLYITVLTVMGVKRSPNMCASVGIQGIAWAFGGMIFVLVYCTAGISGGHINPAVTFGLFLARKLSLTRALYYIVMQCLGAICGAGVVKGFQPKQYQALGGGANTVAHGYTKGSGLGAEIIGTFVLVYTVFSATDAKRNARDSHVPILAPLPIGFAVFLVHLATIPITGTGINPARSLGAAIIYNKDHSWDDHWVFWVGPFIGAALAALYHVVVIRAIPFKSRS
On to B6, for which, in test [6], the binding entry was “binds weakly”.

B7: 1;1Q88L (AtPIP1;1 mutant, with glutamine at site of 88 mutated into leucine) (protein, UniProt P61837 1-286)
chain: MEGKEEDVRVGANKFPERQPIGTSAQSDKDYKEPPPAPFFEPGELSSWSFWRAGIAEFIATFLFLYITVLTVMGVKRSPNMCASVGILGIAWAFGGMIFALVYCTAGISGGHINPAVTFGLFLARKLSLTRALYYIVMQCLGAICGAGVVKGFQPKQYQALGGGANTVAHGYTKGSGLGAEIIGTFVLVYTVFSATDAKRNARDSHVPILAPLPIGFAVFLVHLATIPITGTGINPARSLGAAIIYNKDHSWDDHWVFWVGPFIGAALAALYHVVVIRAIPFKSRS
With B7, the binding result in test [2] was “binds weakly”.
